The results in this text go back to patent publication US20170182119A1.

Protein sequences, listed by entry. Tags and fused reporters are not part of them. Lines headed by an entry give the natural chain unless they say otherwise; changes in a name come on top.
UniProt Q8MIP0: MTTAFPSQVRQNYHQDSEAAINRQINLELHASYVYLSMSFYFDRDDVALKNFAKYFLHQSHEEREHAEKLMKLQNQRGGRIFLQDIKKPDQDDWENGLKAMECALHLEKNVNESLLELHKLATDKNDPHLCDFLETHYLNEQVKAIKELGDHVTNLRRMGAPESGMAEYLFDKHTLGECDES
UniProt P02791: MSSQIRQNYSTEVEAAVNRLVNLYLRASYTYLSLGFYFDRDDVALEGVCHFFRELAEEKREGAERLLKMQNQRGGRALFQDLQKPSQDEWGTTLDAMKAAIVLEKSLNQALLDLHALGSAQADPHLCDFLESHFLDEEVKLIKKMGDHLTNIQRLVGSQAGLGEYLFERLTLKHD

Results are given in words; binding and its absence hold for the method and conditions named. Some binding calls cover weakened binding; strength is not graded here. Where a sequence is shown, tags or fusion partners need not be part of it.

For the assay, the target named is ferritin purified from horse spleen (mixture of FTH1 and FTL subunits) (horse) (UniProt Q8MIP0+P02791). Put plainly: GST pull-down of ferritin with bead-bound GST-NCOA4 fragments, FTH1 immunoblot.

B1: GST-NCOA4 aa 485-509 (peptide, not shown: a dimerising Fc or GST)
chain: SFQVIKNSPLSEWLIRPPYKEGSPK
B1: the binding entry is “binds”.
